Measurements: PMC5007466, “VCP recruitment to mitochondria causes mitophagy impairment and neurodegeneration in models of Huntington's disease” (Nature Communications, 2016)

Sequences of proteins named here, by UniProt entry; tags and fusion partners are left off. A change or cut given only in a name is not applied to a line headed by its entry.
UniProt P42858: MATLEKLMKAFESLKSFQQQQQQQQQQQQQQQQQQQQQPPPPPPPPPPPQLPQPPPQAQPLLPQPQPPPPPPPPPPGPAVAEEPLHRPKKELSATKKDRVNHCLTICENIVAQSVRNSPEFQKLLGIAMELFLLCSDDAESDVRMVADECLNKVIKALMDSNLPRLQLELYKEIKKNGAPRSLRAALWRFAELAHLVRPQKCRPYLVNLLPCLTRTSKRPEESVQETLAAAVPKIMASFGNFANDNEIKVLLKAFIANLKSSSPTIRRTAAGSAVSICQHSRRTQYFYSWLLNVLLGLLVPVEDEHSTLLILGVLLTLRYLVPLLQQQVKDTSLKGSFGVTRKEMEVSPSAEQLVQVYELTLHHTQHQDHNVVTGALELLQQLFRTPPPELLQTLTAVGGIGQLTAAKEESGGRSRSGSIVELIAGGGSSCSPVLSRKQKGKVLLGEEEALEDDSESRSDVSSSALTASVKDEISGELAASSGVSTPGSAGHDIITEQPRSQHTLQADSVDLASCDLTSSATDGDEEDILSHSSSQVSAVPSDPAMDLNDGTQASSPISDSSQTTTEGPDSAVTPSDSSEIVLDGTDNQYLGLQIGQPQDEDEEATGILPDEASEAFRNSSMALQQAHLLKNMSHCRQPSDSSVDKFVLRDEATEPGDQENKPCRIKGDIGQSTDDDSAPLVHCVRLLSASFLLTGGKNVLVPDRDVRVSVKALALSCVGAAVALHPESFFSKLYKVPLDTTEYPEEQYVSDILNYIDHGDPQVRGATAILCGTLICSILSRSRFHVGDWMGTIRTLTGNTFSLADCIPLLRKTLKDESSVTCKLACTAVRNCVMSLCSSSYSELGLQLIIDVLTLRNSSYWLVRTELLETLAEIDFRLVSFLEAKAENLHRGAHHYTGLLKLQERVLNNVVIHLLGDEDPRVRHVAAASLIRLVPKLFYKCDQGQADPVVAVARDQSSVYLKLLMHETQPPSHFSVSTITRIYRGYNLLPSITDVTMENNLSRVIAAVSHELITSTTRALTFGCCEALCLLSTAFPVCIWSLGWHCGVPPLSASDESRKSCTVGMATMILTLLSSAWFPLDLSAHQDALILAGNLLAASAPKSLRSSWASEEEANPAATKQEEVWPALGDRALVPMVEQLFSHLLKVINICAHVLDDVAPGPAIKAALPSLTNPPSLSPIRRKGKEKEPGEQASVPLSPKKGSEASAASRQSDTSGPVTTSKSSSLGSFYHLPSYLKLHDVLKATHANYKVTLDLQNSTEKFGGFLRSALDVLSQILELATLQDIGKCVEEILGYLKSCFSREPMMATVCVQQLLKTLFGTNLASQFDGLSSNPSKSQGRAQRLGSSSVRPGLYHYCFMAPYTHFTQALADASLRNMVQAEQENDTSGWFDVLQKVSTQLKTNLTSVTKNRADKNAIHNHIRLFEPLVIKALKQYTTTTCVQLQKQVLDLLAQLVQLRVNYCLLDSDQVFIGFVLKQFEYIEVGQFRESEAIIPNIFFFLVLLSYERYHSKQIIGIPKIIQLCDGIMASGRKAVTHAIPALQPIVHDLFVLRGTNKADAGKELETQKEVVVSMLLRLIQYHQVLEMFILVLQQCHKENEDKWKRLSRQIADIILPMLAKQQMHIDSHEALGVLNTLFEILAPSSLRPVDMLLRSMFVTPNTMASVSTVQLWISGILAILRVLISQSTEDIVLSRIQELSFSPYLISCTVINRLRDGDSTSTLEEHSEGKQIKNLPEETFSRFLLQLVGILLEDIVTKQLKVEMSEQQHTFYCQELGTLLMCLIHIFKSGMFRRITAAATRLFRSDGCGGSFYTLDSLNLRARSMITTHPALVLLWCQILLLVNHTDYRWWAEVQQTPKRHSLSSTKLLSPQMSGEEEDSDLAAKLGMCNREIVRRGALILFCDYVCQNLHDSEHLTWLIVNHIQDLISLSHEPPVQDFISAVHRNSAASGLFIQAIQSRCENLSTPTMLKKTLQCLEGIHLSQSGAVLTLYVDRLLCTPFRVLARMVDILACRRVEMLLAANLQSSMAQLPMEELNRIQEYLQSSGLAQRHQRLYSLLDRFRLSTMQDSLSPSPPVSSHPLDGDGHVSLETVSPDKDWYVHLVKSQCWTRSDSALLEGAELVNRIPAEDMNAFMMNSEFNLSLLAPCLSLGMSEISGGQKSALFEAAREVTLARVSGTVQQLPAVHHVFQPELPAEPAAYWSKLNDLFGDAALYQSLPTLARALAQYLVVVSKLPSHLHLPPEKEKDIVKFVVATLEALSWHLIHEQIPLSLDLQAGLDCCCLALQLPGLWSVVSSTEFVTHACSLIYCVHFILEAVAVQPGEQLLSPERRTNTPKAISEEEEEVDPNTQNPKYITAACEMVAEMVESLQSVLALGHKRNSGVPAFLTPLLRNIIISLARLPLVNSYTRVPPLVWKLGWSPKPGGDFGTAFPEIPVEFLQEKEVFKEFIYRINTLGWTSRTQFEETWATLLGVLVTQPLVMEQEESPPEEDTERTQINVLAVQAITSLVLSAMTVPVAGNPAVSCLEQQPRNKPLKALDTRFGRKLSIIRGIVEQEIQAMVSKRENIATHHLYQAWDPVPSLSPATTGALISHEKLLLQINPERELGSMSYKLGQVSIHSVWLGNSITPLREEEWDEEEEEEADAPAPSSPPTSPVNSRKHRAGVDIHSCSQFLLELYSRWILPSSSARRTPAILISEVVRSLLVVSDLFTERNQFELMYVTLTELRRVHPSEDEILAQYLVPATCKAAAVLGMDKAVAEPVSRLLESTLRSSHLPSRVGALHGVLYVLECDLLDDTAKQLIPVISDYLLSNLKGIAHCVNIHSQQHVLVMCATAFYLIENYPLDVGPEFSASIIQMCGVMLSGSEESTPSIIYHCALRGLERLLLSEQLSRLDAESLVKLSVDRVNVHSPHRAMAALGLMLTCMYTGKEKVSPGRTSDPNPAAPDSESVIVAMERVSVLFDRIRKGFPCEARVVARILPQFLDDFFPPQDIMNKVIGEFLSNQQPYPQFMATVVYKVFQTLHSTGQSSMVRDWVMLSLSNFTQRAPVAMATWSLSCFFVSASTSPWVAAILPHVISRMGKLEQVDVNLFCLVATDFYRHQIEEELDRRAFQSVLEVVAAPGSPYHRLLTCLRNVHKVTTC

How the values were obtained:
[1] = molecular target: valosin-containing protein (VCP), endogenous mouse (mouse (endogenous in HdhQ7/HdhQ111 striatal cells and mouse brain)) (UniProt Q01853); assay: co-IP; IP with anti-VCP antibody from mitochondrial fractions (HdhQ7/HdhQ111 cells, YAC128 mouse striata, HD patient fibroblasts); overnight at 4 °C, protein A/G beads; WB with MAB2166, 1C2 or EM48 antibody
[2] = molecular target: valosin-containing protein (VCP), endogenous mouse (mouse (endogenous in HdhQ7/HdhQ111 striatal cells and mouse brain)) (UniProt Q01853); assay: co-IP; IP with anti-VCP antibody from ER and cytosolic fractions (HdhQ111 cells, YAC128 mouse striata, HD patient fibroblasts); WB with MAB2166, 1C2 or EM48 antibody

**Q.** Which results are given for “full-length human mutant huntingtin of YAC128 mice (128 CAG repeats) (from UniProt P42858)”?
**A.** binding [1]: binds; binding [2]: no binding (only in ER and cytosolic fractions)

These are yes or no findings as the source states them, for the method shown. Binding seen in cells or lysates may run through a third protein. For some assays here: A result given as binding can be weak or reduced; the word gives no strength.
